Data: patent US20180311276A1, “Method and Apparatus for Treating Oral Disease in Animals” (priority 2015, published 2018)

How the values were obtained:
[1] = system: drinking acceptance; test: preliminary experiments on acceptance of elemental iodine in dog drinking water; assay type: in vivo, dogs
[2] = system: dog drinking behavior; test: dog drinking behavior with bowls of various concentrations of molecular iodine in water (Example 2); assay type: in vivo, dogs; conditions: for water consumed from bowl: three dogs, repeated 3 times

II [molecular iodine] was tested, and the “rejection by test dogs” value ([1]; 0.05 micrograms/mL) was “never rejected”, the “rejection by test dogs” value ([1]; 0.1 micrograms/mL) was “never rejected” and the “rejection by test dogs” value ([1]; 0.5 micrograms/mL) was “never rejected”. The “drinking of iodine in dog drinking water” value ([1]; concentration too high e.g., 5 micrograms/mL) was “would not drink”, the “rejection of drinking by dogs” value ([1]; concentrations above 2 micrograms/mL) was “often rejected” and the “approximate limit of concentration in water that canines can detect” value ([1]; dog, in vivo) was “about 1.0 micrograms per milliliter”. The “concentration of elemental iodine in drinking water preferred by dogs” value ([1]; evaluated 0.5, 1.0, 2.0, 3, 5, 10, 15 and 20 micrograms/mL) was “below 2 micrograms/mL”, the “water consumed from bowl” value ([2]; bowl 2, 0.1 microgram/mL) was “All the water” and the “water consumed from bowl” value ([2]; bowl 3, 0.5 microgram/mL) was “All the water”. For the same compound, the “water consumed from bowl” value ([2]; bowl 4, 1.0 microgram/mL) was “All the water”, the “water consumed from bowl” value ([2]; bowl 5, 2.0 microgram/mL) was “no water was consumed” and the “water consumed from bowl” value ([2]; bowl 6, 4.0 microgram/mL) was “no water was consumed”. The “water consumed from bowl” value ([2]; bowl 7, 8.0 microgram/mL) was “no water was consumed” and the “greatest concentration that dogs will freely drink without restriction” value ([2]; in water) was 1.0 microgram/mL.
